# Source: the supplement of paper PMC8728848
# The other results are listed elsewhere or left out.
# Key:
# Test in all cases: glycan array binding signal (z-score within array); higher = stronger binding
# Details in all cases: glycan notation: IUPAC condensed, linker removed
# [1] = target: GalNAc(b1-4)GlcNAc(b1-2)Man
# Procedure, shortened: (§1)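 The binding signal is a Z-score computed within each array. Data were drawn from 3228 arrays in the Consortium for Functional Glycomics database, restricted to those with a known protein sequence. Scores were averaged over arrays of the same protein sequence at different concentrations or buffers, and over linkers, and negative values can be taken as non-binding.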
# [2] = target: GalNAc(b1-4)GlcNAc(b1-2)Man(a1-3)[GalNAc(b1-4)GlcNAc(b1-2)Man(a1-6)]Man(b1-4)GlcNAc(b1-4)GlcNAc
# Procedure, shortened: as §1
# [3] = target: GalNAc(b1-4)GlcNAc(b1-3)GalNAc(b1-4)GlcNAc
# Procedure, shortened: as §1
# [4] = target: GalNAc(b1-4)GlcNAc6S
# Procedure, shortened: as §1
# [5] = target: GalNAc(b1-6)GalNAc
# Procedure, shortened: as §1
# [6] = target: GalNAc3S(b1-4)GlcNAc
# Procedure, shortened: as §1
# [7] = target: GalNAc3S(b1-4)GlcNAc3S
# Procedure, shortened: as §1
# [8] = target: GalNAc3S(b1-4)[Fuc(a1-3)]GlcNAc
# Procedure, shortened: as §1
# [9] = target: GalNAc4S6S(b1-4)GlcNAc
# Procedure, shortened: as §1
# [10] = target: GalNAc6S(b1-4)GlcNAc
# Procedure, shortened: as §1
# [11] = target: Glc(a1-4)Glc
# Procedure, shortened: as §1
# [12] = target: Glc(a1-4)Glc(a1-4)Glc(a1-4)Glc
# Procedure, shortened: as §1
# [13] = target: Glc(a1-6)Glc(a1-6)Glc
# Procedure, shortened: as §1
# [14] = target: Glc(a1-6)Glc(a1-6)Glc(a1-6)Glc
# Procedure, shortened: as §1
# [15] = target: Glc(b1-4)Glc
# Procedure, shortened: as §1
# [16] = target: Glc(b1-6)Glc
# Procedure, shortened: as §1
# [17] = target: GlcA(b1-3)Gal
# Procedure, shortened: as §1
# [18] = target: GlcA(b1-3)GlcNAc
# Procedure, shortened: as §1
# [19] = target: GlcA(b1-6)Gal
# Procedure, shortened: as §1
# [20] = target: GlcA3S(b1-3)Gal(b1-4)GlcNAc(b1-2)Man
# Procedure, shortened: as §1
# [21] = target: GlcA3S(b1-3)Gal(b1-4)GlcNAc(b1-3)Gal(b1-4)Glc
# Procedure, shortened: as §1
# [22] = target: GlcNAc(a1-3)Gal(b1-4)GlcNAc
# Procedure, shortened: as §1
# [23] = target: GlcNAc(a1-4)Gal(b1-3)GlcNAc
# Procedure, shortened: as §1
# [24] = target: GlcNAc(a1-4)Gal(b1-4)GalNAc
# Procedure, shortened: as §1
# [25] = target: GlcNAc(a1-4)Gal(b1-4)GlcNAc
# Procedure, shortened: as §1
# [26] = target: GlcNAc(a1-4)Gal(b1-4)GlcNAc(b1-3)Gal(b1-4)Glc
# Procedure, shortened: as §1
# [27] = target: GlcNAc(a1-4)Gal(b1-4)GlcNAc(b1-3)Gal(b1-4)GlcNAc
# Procedure, shortened: as §1
# [28] = target: GlcNAc(a1-4)Gal(b1-4)GlcNAc(b1-3)Gal(b1-4)GlcNAc(b1-3)Gal(b1-4)GlcNAc
# Procedure, shortened: as §1
# [29] = target: GlcNAc(a1-4)Gal(b1-4)GlcNAc(b1-3)Gal(b1-4)[Fuc(a1-3)]GlcNAc(b1-3)Gal(b1-4)[Fuc(a1-3)]GlcNAc
# Procedure, shortened: as §1
# [30] = target: GlcNAc(a1-6)Gal(b1-4)GlcNAc
# Procedure, shortened: as §1
# [31] = target: GlcNAc(b1-2)Gal(b1-3)GalNAc
# Procedure, shortened: as §1
# [32] = target: GlcNAc(b1-2)Man(a1-3)[GlcNAc(b1-2)Man(a1-6)]Man(b1-4)GlcNAc(b1-4)GlcNAc
# Procedure, shortened: as §1
# [33] = target: GlcNAc(b1-2)Man(a1-3)[GlcNAc(b1-2)Man(a1-6)]Man(b1-4)GlcNAc(b1-4)[Fuc(a1-6)]GlcNAc
# Procedure, shortened: as §1
# [34] = target: GlcNAc(b1-2)Man(a1-3)[GlcNAc(b1-4)][GlcNAc(b1-2)Man(a1-6)]Man(b1-4)GlcNAc(b1-4)GlcNAc
# Procedure, shortened: as §1
# [35] = target: GlcNAc(b1-2)Man(a1-3)[GlcNAc(b1-4)][GlcNAc(b1-2)Man(a1-6)]Man(b1-4)GlcNAc(b1-4)[Fuc(a1-6)]GlcNAc
# Procedure, shortened: as §1
# [36] = target: GlcNAc(b1-2)[GlcNAc(b1-4)]Man(a1-3)[GlcNAc(b1-2)Man(a1-6)]Man(b1-4)GlcNAc(b1-4)GlcNAc
# Procedure, shortened: as §1
# [37] = target: GlcNAc(b1-2)[GlcNAc(b1-4)]Man(a1-3)[GlcNAc(b1-4)][GlcNAc(b1-2)Man(a1-6)]Man(b1-4)GlcNAc(b1-4)GlcNAc
# Procedure, shortened: as §1
binder,measurement,setting,value
RobpsCRA (Robinia pseudoacacia) (protein) IKGGYWYSGSGLAVSDINPSHFTHLFCAFADLDPNTNKLTISSSNAAAFSTFTQTVRAKNPSVKTLLSIGGGGGRALAAVFANMASQASRRKSFIDSSIQLARRNNFHGLDLDWEYPSSDIDKTNFASLIREWRAAVATESSTSGTPALLLSAAVGGSDQITPLKYYPGEAIANNLDWVNVMTYDLYTSDSYPTLTQPPAPLFYPRGIFSADEGITKWIQSGVPESKLALGLPFYGFKWRLSDPNNHGLFAPATQGLGAVKYKDIVNTGGQVEFDSTYVTNYCFKGTDWYGYDDTQSISAKVAYAKQRGLFGYFAWHIEQDSNWALS,glycan array binding signal (z-score),[1],-0.38
same,glycan array binding signal (z-score),[2],-0.025
same,glycan array binding signal (z-score),[3],0.089
same,glycan array binding signal (z-score),[4],0.627
same,glycan array binding signal (z-score),[5],-0.149
same,glycan array binding signal (z-score),[6],-0.237
same,glycan array binding signal (z-score),[7],-0.008
same,glycan array binding signal (z-score),[8],-0.113
same,glycan array binding signal (z-score),[9],-0.31
same,glycan array binding signal (z-score),[10],0.159
same,glycan array binding signal (z-score),[11],-0.419
same,glycan array binding signal (z-score),[12],-0.199
same,glycan array binding signal (z-score),[13],-0.578
same,glycan array binding signal (z-score),[14],-0.603
same,glycan array binding signal (z-score),[15],-0.515
same,glycan array binding signal (z-score),[16],-0.652
same,glycan array binding signal (z-score),[17],0.749
same,glycan array binding signal (z-score),[18],-0.082
same,glycan array binding signal (z-score),[19],0.348
same,glycan array binding signal (z-score),[20],-0.142
same,glycan array binding signal (z-score),[21],2.45
same,glycan array binding signal (z-score),[22],-0.279
same,glycan array binding signal (z-score),[23],-0.431
same,glycan array binding signal (z-score),[24],0.246
same,glycan array binding signal (z-score),[25],-0.324
same,glycan array binding signal (z-score),[26],-0.307
same,glycan array binding signal (z-score),[27],1.54
same,glycan array binding signal (z-score),[28],1.21
same,glycan array binding signal (z-score),[29],0.964
same,glycan array binding signal (z-score),[30],0.412
same,glycan array binding signal (z-score),[31],0.183
same,glycan array binding signal (z-score),[32],-0.152
same,glycan array binding signal (z-score),[33],-0.299
same,glycan array binding signal (z-score),[34],-0.359
same,glycan array binding signal (z-score),[35],-0.721
same,glycan array binding signal (z-score),[36],0.427
same,glycan array binding signal (z-score),[37],-0.505

# Two entries from above, as tab-separated lines:
binder	measurement	setting	value
RobpsCRA (Robinia pseudoacacia) (protein) IKGGYWYSGSGLAVSDINPSHFTHLFCAFADLDPNTNKLTISSSNAAAFSTFTQTVRAKNPSVKTLLSIGGGGGRALAAVFANMASQASRRKSFIDSSIQLARRNNFHGLDLDWEYPSSDIDKTNFASLIREWRAAVATESSTSGTPALLLSAAVGGSDQITPLKYYPGEAIANNLDWVNVMTYDLYTSDSYPTLTQPPAPLFYPRGIFSADEGITKWIQSGVPESKLALGLPFYGFKWRLSDPNNHGLFAPATQGLGAVKYKDIVNTGGQVEFDSTYVTNYCFKGTDWYGYDDTQSISAKVAYAKQRGLFGYFAWHIEQDSNWALS	glycan array binding signal (z-score)	[15]	-0.515
same	glycan array binding signal (z-score)	[29]	0.964
